Assay results published in article PMC10897315.
These are yes or no findings as the source states them, for the method shown. Binding seen in cells or lysates may run through a third protein. Some results given as binding are weak or reduced against the parent protein; the word gives no strength. Tags and fused reporters may be left off the sequences shown.

Molecular target: T1, Atg13^wt-GFP (S. cerevisiae) (UniProt Q06628)
T1 sequence: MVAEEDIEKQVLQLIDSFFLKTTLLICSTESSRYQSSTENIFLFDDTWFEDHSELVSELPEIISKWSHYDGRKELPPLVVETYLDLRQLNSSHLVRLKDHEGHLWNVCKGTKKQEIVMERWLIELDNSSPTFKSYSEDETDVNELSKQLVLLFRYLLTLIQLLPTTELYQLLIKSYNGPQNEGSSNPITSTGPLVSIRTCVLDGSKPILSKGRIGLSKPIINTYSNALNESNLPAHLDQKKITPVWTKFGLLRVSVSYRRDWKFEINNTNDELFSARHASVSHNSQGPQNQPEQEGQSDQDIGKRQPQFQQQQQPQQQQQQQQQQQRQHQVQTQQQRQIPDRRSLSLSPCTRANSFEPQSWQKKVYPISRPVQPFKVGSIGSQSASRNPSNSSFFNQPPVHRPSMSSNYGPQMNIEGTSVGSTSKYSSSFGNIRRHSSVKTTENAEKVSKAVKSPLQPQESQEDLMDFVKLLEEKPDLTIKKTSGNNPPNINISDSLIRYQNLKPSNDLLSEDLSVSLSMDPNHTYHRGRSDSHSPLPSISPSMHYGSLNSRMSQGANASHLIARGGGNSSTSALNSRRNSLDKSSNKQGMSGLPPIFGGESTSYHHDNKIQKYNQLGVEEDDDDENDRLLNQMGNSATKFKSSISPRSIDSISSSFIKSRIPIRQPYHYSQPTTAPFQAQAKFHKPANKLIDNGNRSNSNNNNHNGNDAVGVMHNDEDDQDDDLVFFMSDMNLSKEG
Test: co-IP; GFP-tagged Atg13 precipitated on GFP-Trap Dynabeads from cleared extract of freezer-milled yeast in IP buffer (1x PBS, 10% glycerol, 0.5% Tween-20, phosphatase and protease inhibitors), 1 h at 4 °C; cells starved for 1 h; anti-GFP and anti-Atg17 western blot

B1: Atg17 (protein, UniProt Q06410 1-417)
chain: MNEADVTKFVNNARKTLTDAQLLCSSANLRIVDIKKKLSSWQLSISKLNFLIVGLRQQGKFLYTILKEGIGTKLIQKQWNQAVLVVLVDEMKYWQYEITSKVQRLDGIVNELSISEKDDTDPSKLGDYISRDNVNLLNDKLKEVPVIERQIENIKLQYENMVRKVNKELIDTKLTDVTQKFQSKFGIDNLMETNVAEQFSRELTDLEKDLAEIMNSLTQHFDKTLLLQDKKIDNDEREELFKVVQGDDKELYNIFKTLHEVIDDVDKTILNLGQFLQAKIKEKTELHSEVSEIINDFNRNLEYLLIFKDISNLIDSFKNSCTQDIQTTKELCEFYDNFEESYGNLVLEAKRRKDVANRMKTILKDCEKQLQNLDAQDQEERQNFIAENGTYLPETIWPGKIDDFSSLYTLNYNVKNP
Question: B1 was tested. Which binding did it give?
Answer: The binding was “binds”.
